# Assay results from PubChem BioAssay AID540275 (National Center for Advancing Translational Sciences (NCATS), 2011).
# The chains behind the UniProt entries cited, without tags or fusion partners.
# UniProt Q8NER1, whole entry, looked up: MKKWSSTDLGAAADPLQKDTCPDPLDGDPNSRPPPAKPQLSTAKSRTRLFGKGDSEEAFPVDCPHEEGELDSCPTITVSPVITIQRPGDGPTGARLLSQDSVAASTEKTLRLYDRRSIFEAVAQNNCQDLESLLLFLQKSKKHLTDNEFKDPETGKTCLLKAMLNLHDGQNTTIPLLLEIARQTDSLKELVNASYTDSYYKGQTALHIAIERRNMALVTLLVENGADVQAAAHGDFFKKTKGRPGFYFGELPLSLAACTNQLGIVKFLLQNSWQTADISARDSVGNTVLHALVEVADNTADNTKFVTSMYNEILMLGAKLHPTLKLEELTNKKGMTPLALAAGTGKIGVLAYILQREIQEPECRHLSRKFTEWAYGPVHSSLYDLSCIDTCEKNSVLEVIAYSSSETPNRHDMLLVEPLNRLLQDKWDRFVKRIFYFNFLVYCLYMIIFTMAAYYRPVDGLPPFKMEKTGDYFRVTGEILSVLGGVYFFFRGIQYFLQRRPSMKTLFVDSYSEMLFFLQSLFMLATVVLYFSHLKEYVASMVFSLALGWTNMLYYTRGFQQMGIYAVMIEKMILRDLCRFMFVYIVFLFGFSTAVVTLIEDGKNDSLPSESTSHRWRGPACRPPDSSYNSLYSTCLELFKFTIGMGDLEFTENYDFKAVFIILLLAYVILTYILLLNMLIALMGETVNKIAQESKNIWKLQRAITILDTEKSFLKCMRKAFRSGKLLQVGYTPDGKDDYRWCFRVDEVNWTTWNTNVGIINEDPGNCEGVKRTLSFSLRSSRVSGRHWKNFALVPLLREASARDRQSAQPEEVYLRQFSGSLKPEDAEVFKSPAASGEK
# Hit rate of the full screen: of about 320,000 compounds, about 620 (0.19%) were called active. Inconclusive means that the source gave no clear call. Such entries were picked first, then a sample of the others. Rule as the data show it: active = activation above about 80%; inconclusive = between about 30% and that limit; inactive = weaker than that.
# Molecular target: Transient receptor potential cation channel subfamily V member 1 (Homo sapiens) (UniProt Q8NER1)
# Experiment: HTS Assay for Compounds that Act as Agonists of the Vanilloid Receptor 1; also: 0% is about no effect
# Conditions: TRPV1-expressing cells, Fluo-8 calcium influx, agonist mode; at 8.33 µM, hits give high values
# Procedure, shortened: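 Cells expressing TRPV1 were dye-loaded with Fluo-8 and read kinetically: 10 s baseline, 3 min after compound (agonist portion), then 2 min after EC20 capsaicin (allosteric enhancer portion). Calcium-bound dye fluorescence at 480/520 nm.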
row,SMILES,activation
1,COc1cccc(NC(=O)N2CCN(c3cccc(C)c3C)CC2)c1,inconclusive: 62.3%
2,COc1ccc(/C=N/Nc2nncc3ccccc23)c(OC)c1,inactive: -0.94%
3,CCc1ccccc1S(=O)(=O)Cc1ccc(C(=O)N2CCN(c3ccccc3OC)CC2)o1,inactive: 4.45%
4,CC(Oc1ccccc1)C(=O)Nc1ccc(F)c(S(=O)(=O)N2CCOCC2)c1 (stereo unspecified),inconclusive: 44%
5,Nn1c(SCc2ccc(F)cc2)nnc1-c1ccccn1,inconclusive: 31.7%
6,COc1ccc(-c2onc(C)c2-c2ccc(C(=O)OC(C)C)o2)c(O)c1,inconclusive: 34.4%
7,CCCCNC(=O)Nc1nc2ccc(CC)cc2s1,inconclusive: 30.7%
8,CCc1ccc(-c2nc(CN3CCC(C(=O)NCCN(CC)c4ccccc4)CC3)c(C)o2)cc1,inactive: -0.472%
9,O=C(NCCc1ccc(Cl)cc1)C12CC3CC(CC(O)(C3)C1)C2,inconclusive: 51.6%
10,Oc1ccccc1-c1nc(NCC2CCCO2)c2ccccc2n1 (stereo unspecified),inconclusive: 41%
11,O=C(COC(=O)c1cccc(C(F)(F)F)c1)NCc1ccc(Cl)cc1,inconclusive: 43.6%
12,O=C(Nc1ccc2oc(-c3ccccc3)nc2c1)c1cc(-n2cnnc2)ccc1Cl,inconclusive: 39.9%
13,O=C(C1=C[C@H](C2CC2)C[C@H](OCCCCO)O1)N1CCOCC1,inactive: 0.313%
14,C/C(=N\NC(=O)c1ccncc1)c1cccnc1,inconclusive: 40.8%
15,CCN(CC(=O)Nc1ccc(C)c(S(=O)(=O)N2CCOCC2)c1)Cc1ccccc1,inconclusive: 34%
16,O=C(CCc1ccccc1)Nc1cccnc1,inconclusive: 36.5%
17,CC(C)(C)c1ccc(NC(=O)NCc2ccco2)cc1,active: 89.3%
18,CC(C)OC(=O)C1C(=O)CC(C)(O)C(C(=O)OC(C)C)C1c1cccc([N+](=O)[O-])c1 (stereo unspecified),inconclusive: 34.9%
19,CCc1ccccc1NC(=O)NNS(=O)(=O)c1cc(C)ccc1C,inactive: 1.49%
20,O=C(Nc1cc(C(F)(F)F)ccc1N1CCOCC1)C1Cc2ccccc2CN1C(=O)c1ccco1 (stereo unspecified),inconclusive: 39.4%
21,CCOC(=O)c1c(C)c(C(=O)Nc2ccc3c(c2)OCCO3)c(C)n1CC,inconclusive: 55.7%
22,O=C(CSc1ccc(Cl)cc1Cl)N1CCC(c2nc3ccccc3s2)CC1,inconclusive: 57.6%
23,O=C(Nc1ccc(S(=O)(=O)N2CCCCCC2)cc1)c1ccc(Br)o1,inconclusive: 60.5%

row,SMILES,activation
1,CCc1ccc(OCC(=O)NNC(=O)c2cc(S(=O)(=O)N(C)C)ccc2N2CCCC2)cc1,inactive: -0.406%
2,CCOc1ccc2[nH]c(=O)c(CN(CCO)C(=O)CC)cc2c1,inactive: -2.12%
3,CCC(C)(C)n1nnnc1CN1CCC(NC(=O)c2ccc(Br)cc2)CC1,inactive: 13.2%
4,Cc1ccc2[nH]c(=O)c(CN(Cc3ccccc3)C(=S)NCCCN(C)C)cc2c1,inconclusive: 44.9%
5,C=CCN(c1ccccc1)S(=O)(=O)c1cc(C(=O)NC2=NCCS2)ccc1Cl,inconclusive: 40.3%
6,O=C(Cc1ccc(F)cc1)N1CCN(c2ccc([N+](=O)[O-])cc2)CC1,inconclusive: 56.4%
7,S=C(NCCc1ccccc1)NCc1cccs1,inconclusive: 72.5%
8,Cc1ccccc1OCC(=O)Nc1ccc2c(c1)OCO2,inconclusive: 59.5%
9,Oc1ccc(Cl)cc1C1C=C(c2ccc3c(c2)OCO3)NC(c2cc(Br)ccc2F)N1 (stereo unspecified),inactive: 7.36%
10,Cc1ccc(C(=O)Nc2ccc(S(=O)(=O)N3CCOCC3)cc2)cc1,inconclusive: 67.8%
11,NS(=O)(=O)c1ccc(CCNCC#Cc2ccccc2)cc1,inconclusive: 36.9%
12,Cc1ccc(C(=O)NC(NCc2ccccc2)C(Cl)(Cl)Cl)cc1 (stereo unspecified),inactive: 15.6%
13,CC(=O)NCCCOc1ccc([N+](=O)[O-])cc1Cl,inconclusive: 44.6%
14,CCc1ccc(/C=C\C(=O)N2CCc3ccccc3C2)cc1,inconclusive: 50.7%
15,Cc1nn(-c2ccccn2)c2nc(-c3cccs3)cc(C(=O)N3CCOCC3)c12,inconclusive: 50.9%
16,Oc1oc(-c2ccccc2)nc1C=Nc1cccc2ccccc12,inconclusive: 36.5%
17,O=C(c1ccco1)N1CCN(c2nc(C3CC3)nc3sc4c(c23)CCCC4)CC1,inconclusive: 41.4%
18,Cc1ccc(C(=O)N[C@H](C(=O)Nc2ccc(F)cc2)C(C)C)cc1,inconclusive: 53.8%
19,CCC(CC)C(=O)Oc1c(Sc2ccccc2[N+](=O)[O-])c(C)nn1C(C)(C)C,inconclusive: 64.5%
20,Cc1c(N=NC2=C(O)CC(C)(C)CC2=O)cc2c(c1[N+](=O)[O-])C(C)(C)CC2(C)C,inconclusive: 77.3%
21,CCN1CCN(c2ccc(NC(=O)Cc3ccccc3)cc2)CC1,inactive: -0.336%
22,CCCCC[C@H]1CN(CCCC)C(=O)[C@@H]1CC(=O)NCc1ccc(OC)cc1,inconclusive: 57.4%
23,CS(=O)(=O)Nc1ccccc1C(=O)NCCSc1ccc(Cl)cc1,inactive: 6.92%

row,SMILES,activation
1,CCCNC(=O)C(=O)NCC1CCCN1CC (stereo unspecified),inactive: -4.67%
2,COc1ccc(-n2nc(C#N)c(Cl)cc2=O)cc1,inactive: 1.45%
3,O=C(CSc1nc(=O)n2ccccc2n1)N1CCCCCC1,inactive: -1.38%
4,CC(C)(Sc1ccc(CCN(CCCCC2CCCCC2)C(=O)NC2CCCCC2)cc1)C(=O)O,inconclusive: 44.2%
5,Cc1ccc(CNC(=O)C2CCC(=O)N2C(C)C)cc1 (stereo unspecified),inactive: -3.61%
6,O=C1C(Cl)=C(NCCCO)C(=O)c2ccccc21,inactive: 2.56%
7,Cc1c(/C=C/C(=O)c2ccc(Cl)s2)cnn1C,inconclusive: 46.3%
8,Cc1nn(-c2ccccc2)c(Cl)c1C(=O)NC1CCCCC1,inconclusive: 38.8%
9,Cc1ccc(S(=O)(=O)N(CC(=O)Nc2cccnc2)c2cccc(Br)c2)cc1,inconclusive: 67%
10,COc1ccc(NC(=O)CN(C)C(=O)/C=C/c2cn(-c3ccccc3)nc2-c2ccc(F)cc2)cc1,inconclusive: 49.9%
11,Cc1csc2nc(CSc3ccc(Cl)cc3)cn12,inconclusive: 47.6%
12,CCC(O)C1CCN(C(=O)c2cc(COc3ccc(F)cc3F)on2)CC1 (stereo unspecified),inconclusive: 60.7%
13,Cc1nn2c(N)c(C#N)cnc2c1-c1ccc(Cl)cc1,inactive: -0.97%
14,COc1ccc(OC)c(-c2cc(C(=O)NCc3ccco3)no2)c1,inconclusive: 33.7%
15,COc1cccc(NC(=O)c2ncc(Cl)c(Cl)c2Cl)c1,inconclusive: 31.7%
16,CCOC(=O)C1CCCN(C(=O)c2cc3c(-c4cccc(OC)c4)nn(C)c3s2)C1 (stereo unspecified),inactive: 22.3%
17,O=C1CCC(C(=O)NCc2ccccc2)N1 (stereo unspecified),inactive: -2.11%
18,O=C(Nc1ccc(Cl)c(Cl)c1)C1=Cc2ccccc2OC1,active: 87.5%
19,CCCC(=O)Nc1ccc2c(c1)c1ccccc1n2CC,inconclusive: 43.6%
20,CCc1sc(C(=O)Nc2cccc(C(C)=O)c2)cc1C,inconclusive: 56.9%
21,COc1ccc(NC(=O)c2cc(-c3ccccc3)oc2C)cc1,inconclusive: 38.2%
22,CC(C)COc1ccc(C(=O)Nc2ccccc2[N+](=O)[O-])cc1,inconclusive: 34.6%
23,c1ccc(CN2c3ccccc3-c3nc4ccccc4n3C2c2ccccn2)cc1 (stereo unspecified),inconclusive: 32.3%

# Gathered by group: those above with a thiophene ring, fused or not
row,SMILES,activation
7,S=C(NCCc1ccccc1)NCc1cccs1,inconclusive: 72.5%
15,Cc1nn(-c2ccccn2)c2nc(-c3cccs3)cc(C(=O)N3CCOCC3)c12,inconclusive: 50.9%
17,O=C(c1ccco1)N1CCN(c2nc(C3CC3)nc3sc4c(c23)CCCC4)CC1,inconclusive: 41.4%
7,Cc1c(/C=C/C(=O)c2ccc(Cl)s2)cnn1C,inconclusive: 46.3%
16,CCOC(=O)C1CCCN(C(=O)c2cc3c(-c4cccc(OC)c4)nn(C)c3s2)C1 (stereo unspecified),inactive: 22.3%
20,CCc1sc(C(=O)Nc2cccc(C(C)=O)c2)cc1C,inconclusive: 56.9%

# The listing continues:

row,SMILES,activation
1,CC(C)(C)N1C(=O)c2ccccc2NC(=O)N1Cc1ccc(Br)cc1,inconclusive: 31.3%
2,CC1(C)CC(=O)C2=C(C1)Nc1ccccc1NC2c1ccc(F)c(F)c1 (stereo unspecified),inconclusive: 30.7%
3,COc1ccc(NC(=O)CN(C)C(=O)c2cccc(S(=O)(=O)N3CCN(C)CC3)c2)cc1,inactive: -3.79%
4,CCOC(=O)c1cnc(-n2nc(C)cc2C)nc1NNc1nc(C)cc(C)n1,inactive: 1.81%
5,OC(c1ccccc1)(C1CCCCC1)C(CN1CCOCC1)c1ccccc1 (stereo unspecified),inconclusive: 36.6%
6,O=C(c1cc2ccccc2oc1=O)N(Cc1ccc(F)cc1)C1CCS(=O)(=O)C1 (stereo unspecified),inactive: -3.84%
7,Cc1cccc2sc(NC(=O)CSc3cn[nH]n3)nc12,inconclusive: 31.5%
8,COc1cccc(NC(=O)CCSc2ccc3ccccc3n2)c1,inconclusive: 50.1%
9,CC1=NN(C(N)=S)C(=O)C1N=Nc1ccc(O)cc1 (stereo unspecified),inactive: -0.43%
10,S=c1nc(Cc2ccccc2)[nH]c2ccccc12,inconclusive: 34%
11,Cc1cccc(-c2oc3ccccc3c2C#CCCCCO)c1,inconclusive: 32.7%
12,O=[N+]([O-])c1cnccc1Nc1ccc(Cl)cc1,inconclusive: 49.5%
13,O=C(CSc1nnc(-c2ccccc2O)o1)N1CCCCC1,inconclusive: 32.3%
14,CCOC(=O)C1(Cc2ccccc2C(F)(F)F)CCN(CCCn2cccn2)CC1,inconclusive: 32.3%
15,CCc1ccc(C(=O)CSc2n[nH]c(C)n2)cc1,inconclusive: 35.9%
16,COc1ccc(Nc2nc(Nc3ccc(OC)cc3)nc(-n3[nH]c(=O)c(C)c3C)n2)cc1,inactive: -0.367%
17,O=S(=O)(NNc1ncc(C(F)(F)F)cc1Cl)c1ccccc1,inactive: -0.391%
18,CCCCN(C)C1=CC2=CC(=C(C#N)C#N)CCC2CC1 (stereo unspecified),active: 101%
19,CCN(CC)c1ccc(NC(=O)c2ccc(Br)o2)cc1,inconclusive: 46.5%
20,O=c1c2ccccc2[nH]c(=S)n1CCCN1CCN(C2CCCCC2)CC1,inactive: 5.07%
21,O=C(NC(=S)Nc1cc([N+](=O)[O-])ccc1Cl)c1ccccc1,inactive: 7.92%
22,CN(C)CCN(C(=O)c1ccc2ccccc2c1)c1nc2cc3c(cc2s1)OCCO3,inactive: 1.2%
